Results on three sequences are retold here after patent US20190201435.

At least one result comes from cells or an extract, where the contact may be indirect.

The target in the data set is p62 endogenous (Homo sapiens) (UniProt Q13501). The data set can be described thus: binding assay. The note with it: iCLIP, among top enriched, protein in cells.

With “GGCUGGCUUUAGCUCAGCGGUUACUUCGACAGUUCUUUAAUUGAAACAAGCAACCUGUCUGGGUUGUUCGAGACCCGCGGGCGCUCUCCAGUCCUUUU [vtRNA1-1]”, the binding result (some crosslink sites decreased upon DMOG) is given as “binds”. As for “GGCUGGCUUUAGCUCAGCGGUUACUUCGAGUACAUUGUAACCACCUCUCUGGGUGGUUCGAGACCCGCGGGUGCUUUCCAGCUCUUUU [vtRNA1-2]”, the binding result is “binds”. Same read-out and setting: then “GGGUCGGAGUUAGCUCAAGCGGUUACCUCCUCAUGCCGGACUUUCUAUCUGUCCAUCUCUGUGCUGGGGUUCGAGACCCGCGGGUGCUUACUGACCCUUU [vtRNA2-1]”, with “binds”.
